Measured values: publication PMC7211019
These are yes or no findings as the source states them, for the method shown. Some results given as binding are weak or reduced against the parent protein; the word gives no strength.

Protein sequences, listed by entry. Tags and fused reporters are not part of them. Residues count along the entry.
UniProt Q9Z340, residues 582-685: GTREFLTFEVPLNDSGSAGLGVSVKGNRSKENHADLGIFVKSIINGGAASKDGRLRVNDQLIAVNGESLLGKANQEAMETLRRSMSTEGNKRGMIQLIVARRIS

Key:
[1] = target: Par3 PDZ3 (rat) (UniProt Q9Z340); assay: crystal structure; Par3 PDZ3 (7–15 mg/ml) mixed with Par6β PBM peptide at 1:3; hanging drop, 16 °C, 2.4 M ammonium sulfate, 0.1 M citrate pH 4.0; both purified
[2] = target: recombinant Par6 PB1 (mouse) (UniProt Q9JK83); assay: SEC; analytical gel filtration, Superdex 200 increase 10/300 GL, 50 mM Tris-HCl pH 8.0, 100 mM (or up to 2 M) NaCl, 1 mM DTT, 1 mM EDTA; both purified

binding [1]	binding [2]	Binder
binds	–	LEEDGTIITL [Par6β PBM peptide]
–	binds	recombinant Par6 PB1 (domain or fragment, UniProt Q9JK83 16-96) TMEVKSKFGAEFRRFSLERSKPGKFEEFYGLLQHVHKIPNVDVLVGYADIHGDLLPINNDDNYHKAVSTANPLLRIFIQKK
